According to PMC7910558:
These are yes or no findings as the source states them, for the method shown. In cells and extracts the contact can be indirect. Some entries that bind do so weakly or less than the wild type.

Protein sequences, listed by entry. Tags and fused reporters are not part of them.
UniProt P14618: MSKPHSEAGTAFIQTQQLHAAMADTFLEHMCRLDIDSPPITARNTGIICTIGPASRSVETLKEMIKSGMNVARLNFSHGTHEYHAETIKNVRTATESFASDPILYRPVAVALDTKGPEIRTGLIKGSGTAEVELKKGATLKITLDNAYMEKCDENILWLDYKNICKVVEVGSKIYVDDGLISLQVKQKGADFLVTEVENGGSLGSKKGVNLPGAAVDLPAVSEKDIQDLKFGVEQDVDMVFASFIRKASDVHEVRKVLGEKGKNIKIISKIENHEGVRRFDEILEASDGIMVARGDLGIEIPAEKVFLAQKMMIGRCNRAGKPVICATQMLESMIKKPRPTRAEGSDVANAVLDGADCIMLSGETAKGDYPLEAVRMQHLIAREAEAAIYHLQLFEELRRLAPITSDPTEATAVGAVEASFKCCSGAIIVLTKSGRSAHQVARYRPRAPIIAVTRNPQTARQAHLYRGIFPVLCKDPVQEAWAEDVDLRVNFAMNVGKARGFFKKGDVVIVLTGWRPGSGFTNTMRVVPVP
UniProt Q16665: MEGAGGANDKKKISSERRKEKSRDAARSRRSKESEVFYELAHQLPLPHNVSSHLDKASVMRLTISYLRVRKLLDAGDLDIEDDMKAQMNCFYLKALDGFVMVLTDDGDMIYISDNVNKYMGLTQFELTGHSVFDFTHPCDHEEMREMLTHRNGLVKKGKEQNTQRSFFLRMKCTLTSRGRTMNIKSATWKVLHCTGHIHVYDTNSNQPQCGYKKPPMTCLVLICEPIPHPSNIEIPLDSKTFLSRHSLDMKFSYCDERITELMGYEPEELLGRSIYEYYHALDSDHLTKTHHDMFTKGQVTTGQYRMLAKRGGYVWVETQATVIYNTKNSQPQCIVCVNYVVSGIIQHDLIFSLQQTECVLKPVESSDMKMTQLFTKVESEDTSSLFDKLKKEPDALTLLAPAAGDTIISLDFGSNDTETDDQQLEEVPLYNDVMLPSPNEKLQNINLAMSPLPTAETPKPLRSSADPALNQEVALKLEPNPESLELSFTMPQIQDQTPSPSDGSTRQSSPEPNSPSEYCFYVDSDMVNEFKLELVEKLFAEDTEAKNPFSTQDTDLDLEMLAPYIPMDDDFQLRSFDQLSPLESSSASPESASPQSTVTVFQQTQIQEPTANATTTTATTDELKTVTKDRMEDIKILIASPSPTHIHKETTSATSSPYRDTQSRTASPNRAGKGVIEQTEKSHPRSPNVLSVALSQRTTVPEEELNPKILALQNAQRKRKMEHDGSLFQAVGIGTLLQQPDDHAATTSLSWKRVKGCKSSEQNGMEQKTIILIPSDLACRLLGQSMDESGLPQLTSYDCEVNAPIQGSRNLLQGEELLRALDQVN
UniProt Q09472: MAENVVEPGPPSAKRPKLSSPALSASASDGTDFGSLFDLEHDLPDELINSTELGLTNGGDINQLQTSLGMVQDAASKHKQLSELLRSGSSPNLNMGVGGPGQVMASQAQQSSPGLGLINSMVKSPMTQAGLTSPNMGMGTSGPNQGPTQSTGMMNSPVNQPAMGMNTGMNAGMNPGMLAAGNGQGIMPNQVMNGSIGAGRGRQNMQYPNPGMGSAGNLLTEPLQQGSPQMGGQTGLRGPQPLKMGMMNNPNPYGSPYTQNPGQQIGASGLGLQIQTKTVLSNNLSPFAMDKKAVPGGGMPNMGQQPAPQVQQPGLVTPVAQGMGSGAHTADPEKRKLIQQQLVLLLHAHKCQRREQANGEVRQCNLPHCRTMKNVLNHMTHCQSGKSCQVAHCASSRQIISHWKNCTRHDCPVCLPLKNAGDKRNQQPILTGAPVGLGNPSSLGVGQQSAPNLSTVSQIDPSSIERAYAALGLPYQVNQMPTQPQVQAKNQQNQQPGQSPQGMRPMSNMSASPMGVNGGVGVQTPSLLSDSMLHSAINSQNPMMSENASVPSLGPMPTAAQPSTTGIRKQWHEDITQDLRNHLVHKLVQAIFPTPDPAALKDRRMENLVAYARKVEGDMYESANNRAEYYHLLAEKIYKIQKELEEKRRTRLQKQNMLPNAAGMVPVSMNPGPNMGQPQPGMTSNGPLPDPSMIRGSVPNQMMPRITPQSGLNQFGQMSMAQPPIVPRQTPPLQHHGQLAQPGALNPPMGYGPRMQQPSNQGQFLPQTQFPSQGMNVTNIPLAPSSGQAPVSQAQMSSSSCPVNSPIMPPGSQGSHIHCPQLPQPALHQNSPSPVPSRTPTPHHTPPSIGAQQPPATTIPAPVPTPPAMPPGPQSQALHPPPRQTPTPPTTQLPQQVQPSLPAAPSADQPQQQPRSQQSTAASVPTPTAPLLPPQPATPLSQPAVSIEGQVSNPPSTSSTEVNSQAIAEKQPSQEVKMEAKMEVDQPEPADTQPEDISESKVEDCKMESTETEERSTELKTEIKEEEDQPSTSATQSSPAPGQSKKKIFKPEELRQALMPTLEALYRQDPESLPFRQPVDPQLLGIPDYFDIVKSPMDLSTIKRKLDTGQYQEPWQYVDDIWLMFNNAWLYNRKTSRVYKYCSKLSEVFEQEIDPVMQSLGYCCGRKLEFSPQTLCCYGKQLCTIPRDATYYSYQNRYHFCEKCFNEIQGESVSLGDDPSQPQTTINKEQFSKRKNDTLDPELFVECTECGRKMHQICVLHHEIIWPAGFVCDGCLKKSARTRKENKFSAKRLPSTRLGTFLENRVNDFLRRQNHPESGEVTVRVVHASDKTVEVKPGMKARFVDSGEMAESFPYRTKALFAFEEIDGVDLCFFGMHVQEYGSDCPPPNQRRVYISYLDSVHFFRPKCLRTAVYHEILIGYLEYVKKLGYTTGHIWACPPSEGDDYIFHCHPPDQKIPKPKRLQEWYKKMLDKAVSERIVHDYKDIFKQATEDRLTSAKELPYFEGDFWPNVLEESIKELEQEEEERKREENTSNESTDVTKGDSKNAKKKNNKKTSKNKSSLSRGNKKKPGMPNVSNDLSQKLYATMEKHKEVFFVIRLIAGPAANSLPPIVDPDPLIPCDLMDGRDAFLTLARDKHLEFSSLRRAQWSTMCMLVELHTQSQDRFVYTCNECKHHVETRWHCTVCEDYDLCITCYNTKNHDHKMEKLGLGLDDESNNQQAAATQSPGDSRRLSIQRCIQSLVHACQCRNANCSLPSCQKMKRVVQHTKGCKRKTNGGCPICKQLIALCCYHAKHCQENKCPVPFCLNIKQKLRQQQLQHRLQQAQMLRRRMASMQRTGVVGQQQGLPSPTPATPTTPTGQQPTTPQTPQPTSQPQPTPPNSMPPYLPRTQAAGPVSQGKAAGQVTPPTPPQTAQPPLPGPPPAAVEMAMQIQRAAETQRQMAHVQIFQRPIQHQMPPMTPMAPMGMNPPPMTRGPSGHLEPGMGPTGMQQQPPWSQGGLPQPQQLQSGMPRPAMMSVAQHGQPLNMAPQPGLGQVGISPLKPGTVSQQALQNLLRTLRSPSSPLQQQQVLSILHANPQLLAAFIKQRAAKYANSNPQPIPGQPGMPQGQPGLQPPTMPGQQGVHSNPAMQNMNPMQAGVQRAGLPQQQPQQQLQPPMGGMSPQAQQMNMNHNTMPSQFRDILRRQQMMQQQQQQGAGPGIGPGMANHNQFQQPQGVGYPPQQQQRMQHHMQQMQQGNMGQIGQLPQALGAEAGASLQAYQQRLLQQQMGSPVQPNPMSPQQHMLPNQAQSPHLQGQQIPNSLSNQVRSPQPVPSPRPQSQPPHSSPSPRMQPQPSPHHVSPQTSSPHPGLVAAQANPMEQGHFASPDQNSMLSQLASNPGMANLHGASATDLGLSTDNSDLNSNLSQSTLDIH

Experiments:
[1] = molecular target: pyruvate kinase isozymes M2 (PKM2) (human (endogenous in MDA-MB-231)) (UniProt P14618); assay: co-IP; MDA-MB-231 cells transiently transfected with control or HIFAL-LNAs for 48 h, then cultured under hypoxia; PKM2 with HIF-1α and with p300; which protein was precipitated is not told
[2] = molecular target: HIF-1α (human (endogenous in MDA-MB-231)) (UniProt Q16665); assay: as above
[3] = molecular target: HIF-1α (human (endogenous in MDA-MB-231)) (UniProt Q16665); assay: co-IP; HIF-1α co-immunoprecipitation at indicated time points after hypoxia in HIFAL WT cells, normalized to the corresponding HIF-1α protein levels

| Substance | binding [1] | binding [2] | binding [3] |
| --- | --- | --- | --- |
| p300 (from UniProt Q09472 1-2414) | binds |  |  |
| pyruvate kinase isozymes M2 (PKM2) (from UniProt P14618 1-531) |  | binds | binds |
